In all, about 330,000 compounds went through this assay and about 7,700 (2.3%) were called active. This list was built around the results that the source calls inconclusive (neither active nor inactive); the mix of calls is not that of the screen. Calls come from the whole dose curve; as a rule, active = well fitted inhibition curve with a large enough effect; inconclusive = small, poorly fitted or top-dose-only effect, or effect the other way; inactive = flat fitted curve, though single readings scatter. Where the call is inconclusive, the potency comes from a doubtful curve fit.
Test: qHTS screen for small molecules that inhibit ELG1-dependent DNA repair in human embryonic kidney (HEK293T) cells expressing luciferase-tagged ELG1; note: nearly all actives have a fitted effect of over 55% in size
Conditions: HEK293T ELG1-luciferase reporter, luminescence, 16 h, DNA damage induced by 5-fluorouridine; activity change, negative = inhibition: at 46.1 µM (top of the series)
Outline: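 HEK293T cells expressing luciferase-tagged ELG1 (2,000/well) received 5-Fluorouridine plus compound or DMSO for 16 hr at 37 °C. Luciferase was read by ONE-Glo luminescence after 30 min at room temperature.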
With `CC1CCC2(CC1)NC(=O)N(CC(=O)N(Cc1ccccc1)C(C)(C)C)C2=O` (stereo not drawn) the “activity change, negative = inhibition” value was inactive: 5.58%. For `CCOc1cc(/C=N/NC(=O)Nc2ccccc2)ccc1O`, the Potency was inconclusive: 10.3 µM [activator, partial curve]. In the case of `O=C(Nc1nnc(-c2ccco2)s1)C1CC1`, the Potency was inconclusive: 14.6 µM [activator, partial curve]. For `COc1cc(CC(=O)N/N=C/c2ccccc2)c([N+](=O)[O-])cc1OC`, the Potency was inconclusive: 29.1 µM [inhibitor, single point]. In the case of `CCCCOC(=O)Nc1ccc(N(C)C)cc1`, the Potency was inconclusive: 7.31 µM [activator, partial curve]. In the case of `COc1ccc(NC(=S)NN(C)C(=S)Nc2ccc(OC)cc2)cc1`, the Potency was inconclusive: 3.66 µM [inhibitor, partial curve, poor fit]. With `O=C(c1n[nH]c(=O)c2ccccc12)N1CCN(C2c3ccccc3-c3ccccc32)CC1` the Potency was inconclusive: 29.1 µM [inhibitor, single point]. With `CCOc1ccc(/C(=N\O)C(C)NO)cc1` (stereo not drawn) the Potency was inconclusive: 14.6 µM [activator, partial curve, poor fit]. For `Cc1ccc2nc(/C(C#N)=C\c3ccc(Oc4ccc([N+](=O)[O-])cn4)cc3)[nH]c2c1`, the Potency was active: 5.17 µM. With `O=C(CN(C(=O)CCC(=O)Nc1ccccn1)c1cccc(F)c1)NCc1ccco1` the “activity change, negative = inhibition” value was inactive: 5.31%. In the case of `O=C(CSc1nc2ccccc2[nH]1)NCc1ccco1`, the Potency was inconclusive: 11.6 µM [activator, partial curve]. In the case of `CC(Sc1nncn1C)C(=O)Nc1nnc(C(C)C)s1` (stereo not drawn), the “activity change, negative = inhibition” value was inactive: 11.6%. In the case of `Cc1ccc(CSCCNC(=O)CN(c2cccc([N+](=O)[O-])c2)S(C)(=O)=O)cc1`, the Potency was inconclusive: 20.6 µM [inhibitor, partial curve, poor fit]. For `O=C(Nc1nccs1)C(Br)C(Br)c1ccccc1` (stereo not drawn), the Potency was inconclusive: 2.59 µM [activator, full curve]. For `CN(c1ccccc1)c1nc(N2CCCC2)nc(-n2ccnc2)n1`, the Potency was inconclusive: 23.1 µM [inhibitor, single point]. For `Cc1ccc(C(=O)N(C)c2nnc(-c3ccncc3)s2)cc1`, the Potency was inconclusive: 2.31 µM [activator, partial curve, poor fit]. With `Cc1ccccc1/C(N)=N/OC(=O)/C=C/c1ccccc1` the Potency was inconclusive: 6.51 µM [activator, single point]. With `CC(C)C(=O)Nc1ccc2c(c1)C(=O)N(CCC(=O)O)C2=O` the “activity change, negative = inhibition” value was inactive: -3.01%. For `O=C(NC(=S)Nc1cc(-c2nc3ccccc3[nH]2)ccc1Cl)c1ccc2c(c1)OCO2`, the Potency was inconclusive: 16.4 µM [inhibitor, single point]. In the case of `Nc1ccc(NC(=O)NC2CCCCC2)cc1[N+](=O)[O-]`, the Potency was inconclusive: 16.4 µM [activator, partial curve]. In the case of `Cc1ccn2c(Nc3ccccc3C)c(-c3ccccn3)nc2c1`, the Potency was inconclusive: 4.61 µM [inhibitor, single point]. For `C[C@H](NC(=O)c1nc[nH]c1C(=O)N[C@H](C)c1ccccc1)C(=O)OC(C)(C)C`, the Potency was inconclusive: 16.4 µM [inhibitor, single point]. In the case of `O=C(/C=C/c1cccs1)NCc1ccc2c(c1)OCO2`, the Potency was inconclusive: 10.3 µM [activator, partial curve]. For `Cn1nc(-c2ccc(N3CCOCC3)c(NS(=O)(=O)c3ccccc3)c2)c2ccccc2c1=O`, the Potency was inconclusive: 9.2 µM [activator, partial curve]. For `COc1ccc(C(CC(=O)Nc2ccccc2OC)n2cccc2)cc1` (stereo not drawn), the Potency was inconclusive: 29.1 µM [inhibitor, single point]. For `Cc1ccccc1NC(=S)/C(=C(\[O-])c1ccc(C)c([N+](=O)[O-])c1)[n+]1ccccc1`, the “activity change, negative = inhibition” value was inactive: 0.157%. In the case of `O=C(NC12CC3CC(CC(C3)C1)C2)N1CCN(C(=O)C2CCCO2)CC1` (stereo not drawn), the Potency was inconclusive: 1.64 µM [activator, partial curve, poor fit]. In the case of `O=C(CSc1nnc(-c2ccccn2)n1Cc1ccccc1)Nc1ccc2c(c1)OCO2`, the Potency was active: 20.6 µM. With `CCSc1nnc(NC(=O)c2csc(C)c2)s1` the Potency was inconclusive: 6.51 µM [activator, partial curve]. For `C1=CC(c2cc3ccccc3o2)OC(CCc2ccccc2)C1` (stereo not drawn), the “activity change, negative = inhibition” value was inactive: 9.87%. With `Cc1cccc(NC(=O)c2cccc(S(=O)(=O)N(C)c3ccccc3)c2)n1` the “activity change, negative = inhibition” value was inactive: -12.7%. In the case of `Cc1ccc(-c2nc(C(=O)NCCCN(C)C)cc3c2[nH]c2ccccc23)cc1`, the “activity change, negative = inhibition” value was inactive: 14.7%. With `Cc1ccc(C)c(N2CCN(c3cnn(-c4nc5ccccc5s4)c(=O)c3Cl)CC2)c1` the Potency was inconclusive: 4.11 µM [activator, partial curve]. With `Cc1ccc(/C=C2\SC(=S)N(CCC(=O)NCCCN3CCOCC3)C2=O)cc1` the “activity change, negative = inhibition” value was inactive: -14.6%. For `O=C(/C=C/c1ccccc1Cl)c1ccc(O)cc1`, the Potency was inconclusive: 29.1 µM [activator, single point]. For `Cc1cc(C)nc(NC(=O)c2ccc(COc3ccccc3Cl)cc2)c1`, the “activity change, negative = inhibition” value was inactive: 0%. For `Cc1ccc2oc(/N=C(\N)NC(=O)C3CC3)nc2c1`, the Potency was inconclusive: 0.73 µM [activator, partial curve, poor fit]. In the case of `COc1ccccc1/C=C1\SC(=S)N(CCC(=O)N2CCCCC2CCO)C1=O` (stereo not drawn), the “activity change, negative = inhibition” value was inactive: -8.36%. In the case of `COc1ccc(-n2c(CNC(=O)COc3ccc(Cl)cc3)n[nH]c2=S)cc1`, the “activity change, negative = inhibition” value was inactive: -4.23%. With `COc1ccccc1NC(=O)C1=C(C)Nc2nc3ccccc3n2C1c1cccs1` (stereo not drawn) the Potency was active: 9.2 µM. With `Cc1cc(=O)[nH]c(SCC(=O)N2CCC(C(N)=O)CC2)n1` the Potency was inconclusive: 9.2 µM [activator, single point]. In the case of `COc1cccc(N=Nc2ccc3ccccc3c2O)c1`, the Potency was inconclusive: 0.82 µM [activator, full curve]. With `CCc1ccc(CCC(=O)Nc2sc3c(c2C#N)CCCC3)o1` the Potency was inconclusive: 29.1 µM [activator, partial curve, poor fit]. For `OCCCc1nc2ccccc2n1CCCCOc1ccccc1`, the “activity change, negative = inhibition” value was inactive: -13.3%. With `CC(C)NCCCCOc1cccc(Br)c1` the “activity change, negative = inhibition” value was inactive: -3.8%. With `C=CCn1c(C)c(/C=C/c2cc[n+](C)cc2)c2ccccc21` the “activity change, negative = inhibition” value was inactive: 7.07%. In the case of `COC(=O)c1ccc(C)c(NC(=O)C2CC(=O)N(C3CCCC(C)C3C)C2)c1` (stereo not drawn), the Potency was inconclusive: 10.3 µM [inhibitor, single point]. For `Cc1noc(C)c1C(=O)NCC1COc2ccccc2O1` (stereo not drawn), the “activity change, negative = inhibition” value was inactive: 0.0743%. For `Cc1ccc(-c2nc3ccccc3s2)cc1NC(=S)NC(=O)c1cccc2ccccc12`, the Potency was inconclusive: 9.2 µM [activator, partial curve]. In the case of `COc1ccc(CN(C)C(=O)c2ccc(OCC(=O)N3CCOCC3)c(OC)c2)cc1`, the “activity change, negative = inhibition” value was inactive: 0%. With `Cc1ccc(O)c(C(=O)c2cnn(-c3ccccc3)c2)c1` the Potency was inconclusive: 9.2 µM [activator, partial curve, poor fit]. In the case of `O=C(Nc1ccn(Cc2ccccc2F)n1)c1ccc(COc2ccc(Cl)cc2Cl)o1`, the Potency was inconclusive: 23.1 µM [inhibitor, single point]. For `CC(C)C(=O)N(c1ccc2oc(=O)sc2c1)S(=O)(=O)c1cccs1`, the Potency was inconclusive: 32.6 µM [inhibitor, single point]. With `O=[N+]([O-])c1cccc(NC(=S)NCCc2ccccc2)c1` the Potency was inconclusive: 29.1 µM [inhibitor, partial curve, poor fit]. For `C#CCOc1ccc(C2C3=C(CC(C)(C)CC3=O)N(CC(=O)O)C3=C2C(=O)CC(C)(C)C3)cc1`, the “activity change, negative = inhibition” value was inactive: 2.15%. In the case of `CC(C)Nc1cc(C(F)(F)F)nc(-c2ccccn2)n1`, the “activity change, negative = inhibition” value was inactive: -4.08%. For `CCOCCCNc1nc(C)nc2c1nnn2Cc1c(F)cccc1Cl`, the Potency was inconclusive: 32.6 µM [inhibitor, partial curve, poor fit]. With `CCNc1nc(NC(C)C)nc(OCC)n1` the Potency was inconclusive: 23.1 µM [activator, partial curve, poor fit]. For `O=c1ccc(-c2nc3ccccc3n2Cc2ccc(Cl)cc2)c[nH]1`, the Potency was inconclusive: 6.51 µM [activator, single point]. In the case of `COc1ccc2oc(C(=O)N3CCN(C/C=C/c4ccccc4)CC3)c(C)c2c1`, the Potency was inconclusive: 29.1 µM [inhibitor, single point]. With `COc1ccc(CCNCCN2CCOCC2)cc1` the “activity change, negative = inhibition” value was inactive: -5.61%. In the case of `Clc1ccccc1-c1nn2c(-c3ccncc3)nnc2s1`, the Potency was active: 10.3 µM. For `O=C(NCCc1csc(-c2ccccc2)n1)c1ccc(Br)o1`, the “activity change, negative = inhibition” value was inactive: -15.5%. With `CN(Cc1cccc(C(F)(F)F)c1)C(=O)C1CCC(=O)N(CC2CCCCC2)C1` (stereo not drawn) the “activity change, negative = inhibition” value was inactive: -2.35%. For `OC(COc1ccc(Br)cc1)CN1CCN(c2ccccc2)CC1` (stereo not drawn), the “activity change, negative = inhibition” value was inactive: 12.7%. In the case of `COc1ccccc1NC(=O)c1cnc(SCC(=O)NCCc2ccccc2)n(C)c1=O`, the Potency was inconclusive: 20.6 µM [activator, single point]. With `Cc1cc(C)c2c(N)c(C(=O)NNC(=O)c3ccccc3)sc2n1` the Potency was inconclusive: 14.6 µM [activator, partial curve]. For `CC(=O)Nc1ccc(S(=O)(=O)N(C)CC(=O)N2CCN(C(=O)c3ccco3)CC2)cc1`, the “activity change, negative = inhibition” value was inactive: 9.71%. In the case of `COc1ccc2c(c1)OC[C@H]1[C@H]2N2C(=O)[C@H](C)NC(=O)[C@@]2(C)[C@H]1c1ccccc1`, the “activity change, negative = inhibition” value was inactive: 6.97%. For `Cc1cc(N2CCCCC2)nc2ccc(NC(=O)c3ccc(Br)o3)cc12`, the Potency was inconclusive: 29.1 µM [inhibitor, single point]. In the case of `COc1ccc(NC(=S)NCCc2c[nH]c3ccccc23)cc1`, the “activity change, negative = inhibition” value was inactive: -14.9%. With `O=C(COc1ccc2ccccc2c1Br)N1CCCC1` the Potency was inconclusive: 20.6 µM [activator, single point]. For `CCOc1cccc(-c2cc(C(=O)N/N=C/c3ccc(OC)c(CN4CCOCC4)c3)c3ccccc3n2)c1`, the Potency was active: 23.1 µM.
% is set by controls: 0 for no effect and ±100 for the full control effect; potency is the fitted concentration of half-maximal effect.
